From PMC11898703

Tests used:
[1] = target: T1, FliW-T25 (Clostridioides difficile) (UniProt Q18CX4); assay: two-hybrid; bacterial two-hybrid (BACTH) in E. coli BTH101; T25 and T18 fusions co-transformed; cultures dotted on LB-X-Gal-IPTG indicator plates, blue colonies positive, white colonies no interaction
T1 sequence: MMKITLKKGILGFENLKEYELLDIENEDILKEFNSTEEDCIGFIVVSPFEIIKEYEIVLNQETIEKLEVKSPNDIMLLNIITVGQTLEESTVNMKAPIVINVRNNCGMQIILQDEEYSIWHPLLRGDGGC

[2] = target: T2, FliW-3×FLAG (Clostridioides difficile) (UniProt Q18CX4); assay: co-IP; lysates of C. difficile CD1015ΔfliCΔfliWΔcsrAΔtcdR co-expressing FliW-3×FLAG and TcdR-6×His; anti-[…] magnetic agarose, room temperature 20 min; Western blot with anti-FLAG or anti-His; control strain with FliW lacking the 3×FLAG tag
T2 sequence: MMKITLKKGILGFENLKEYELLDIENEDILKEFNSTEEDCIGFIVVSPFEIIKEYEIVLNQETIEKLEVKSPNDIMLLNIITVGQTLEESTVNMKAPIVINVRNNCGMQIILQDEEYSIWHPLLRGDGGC

[3] = target: T1, FliW-T25 (Clostridioides difficile); assay: two-hybrid
[4] = target: FliC-T25 (Clostridioides difficile); assay: two-hybrid; bacterial two-hybrid (BACTH) in E. coli BTH101; T25 and T18 fusions co-transformed; cultures dotted on LB-X-Gal-IPTG indicator plates, blue colonies positive, white colonies no interaction

FliC-T18 (Clostridioides difficile)
binding [1]: binds

TcdR-6×His (Clostridioides difficile)
binding [2]: binds

TcdR-T18 (Clostridioides difficile)
binding [3]: binds

B1: CsrA-T18 (protein, UniProt Q18CX3 1-70)
chain: MLVISRKKDEAVLIGDNIEVKVVGVDGNNIKLAISAPNNISILRKEIYEKVKNENIKATNKNIKILKSLK
binding [4]: no binding

No constants are given. Whether binding was seen depends on the method and setting. For some of these results: Binding calls can cover weak binding; strength is not graded here. For some of these results: Binding seen in cells or lysates may run through a third protein. For some of these results: Tags and fused reporters may be left off the sequences shown.
